Measured values from publication PMC4875723.
No constants are given. Whether binding was seen depends on the method and setting. In cells and extracts the contact can be indirect. Some binding calls cover weakened binding; strength is not graded here.

Amino acid sequences for entries named in this document (tags omitted).
UniProt P46937: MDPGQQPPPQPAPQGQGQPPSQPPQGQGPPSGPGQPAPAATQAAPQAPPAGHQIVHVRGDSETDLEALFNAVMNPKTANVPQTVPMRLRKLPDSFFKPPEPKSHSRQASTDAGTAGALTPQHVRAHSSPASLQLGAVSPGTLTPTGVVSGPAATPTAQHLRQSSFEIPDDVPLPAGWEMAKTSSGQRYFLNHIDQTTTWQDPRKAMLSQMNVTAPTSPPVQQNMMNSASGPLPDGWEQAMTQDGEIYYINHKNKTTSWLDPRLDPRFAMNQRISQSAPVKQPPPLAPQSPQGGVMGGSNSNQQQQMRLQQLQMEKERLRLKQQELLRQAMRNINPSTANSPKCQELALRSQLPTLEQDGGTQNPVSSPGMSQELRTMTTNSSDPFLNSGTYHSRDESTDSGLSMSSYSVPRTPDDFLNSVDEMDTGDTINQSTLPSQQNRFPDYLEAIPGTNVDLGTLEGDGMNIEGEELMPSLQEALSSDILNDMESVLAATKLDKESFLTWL
UniProt P31946: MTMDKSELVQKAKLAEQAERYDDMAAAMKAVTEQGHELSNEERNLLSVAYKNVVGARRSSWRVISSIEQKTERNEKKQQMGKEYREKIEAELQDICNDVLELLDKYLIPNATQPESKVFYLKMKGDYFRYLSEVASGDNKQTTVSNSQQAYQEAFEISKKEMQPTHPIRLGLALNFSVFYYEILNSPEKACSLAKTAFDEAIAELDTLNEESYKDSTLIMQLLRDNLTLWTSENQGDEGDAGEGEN

Biological target: yes-associated protein (YAP) (human (endogenous in MG63 and U2OS)) (UniProt P46937)
Assay: co-IP; 1 mg of cell lysate (MG63 or U2OS; 50 mM Tris pH 8.0, 150 mM NaCl, 1% NP40, protease inhibitors) incubated with YAP antibody and protein A or G agarose at 4 °C overnight; blot with 14-3-3β and YAP antibodies; cells untreated or exposed to methotrexate or doxorubicin at indicated concentrations for 24 h

14-3-3β (from UniProt P31946 1-246)
binding: binds
